LiHisRS: 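Enzyme assay of histidyl-tRNA synthetase; the read-out is not stated. Target: Histidine-tRNA ligase, Leishmania infantum (UniProt A4I591). Concentration: 30 µM. Higher reads as stronger inhibition (inferred: compounds with an IC50 in retests scored well above the rest). The assay is labelled LdHisRS but filed under L. infantum. Of about 69,000 compounds tested this way, about 410 (0.6%) reached 50% or more in at least one test.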
MtTrpRS: 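Tryptophan-tRNA ligase, Mycobacterium tuberculosis (UniProt P9WFT3). Enzyme assay of tryptophanyl-tRNA synthetase; the read-out is not stated. Tested at 10 µM. Direction is not recorded; retested compounds ran higher, which suggests that high means inhibition. Size under these conditions: about 65,000 compounds, about 64 of them at 50% or above in at least one test.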
Toxoplasma: 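Assay of Toxoplasma gondii numbers, read through their beta-galactosidase reporter with a colour substrate. Concentration: 10 µM. Higher reads as fewer parasites (inferred from which compounds were picked for retests). Of about 67,000 compounds tested this way, about 260 (0.38%) reached 50% or more in at least one test.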
CoaBC: 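Coenzyme A biosynthesis protein CoaBC, Mycobacterium tuberculosis (UniProt P9WNZ1). Enzyme assay of CoaBC with a phosphate dye (Biomol Green) read at 650 nm. Tested at 30 µM. Direction is inferred from only a few compounds that gave an IC50; most scored high, so higher reads as stronger inhibition. Most strong results did not repeat in a second test. Size under these conditions: about 67,000 compounds, about 40 of them at 50% or above in at least one test.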

Chains of the proteins cited; added tags and fusions are not shown. Residues count along the entry.
UniProt A4I591, 1-473: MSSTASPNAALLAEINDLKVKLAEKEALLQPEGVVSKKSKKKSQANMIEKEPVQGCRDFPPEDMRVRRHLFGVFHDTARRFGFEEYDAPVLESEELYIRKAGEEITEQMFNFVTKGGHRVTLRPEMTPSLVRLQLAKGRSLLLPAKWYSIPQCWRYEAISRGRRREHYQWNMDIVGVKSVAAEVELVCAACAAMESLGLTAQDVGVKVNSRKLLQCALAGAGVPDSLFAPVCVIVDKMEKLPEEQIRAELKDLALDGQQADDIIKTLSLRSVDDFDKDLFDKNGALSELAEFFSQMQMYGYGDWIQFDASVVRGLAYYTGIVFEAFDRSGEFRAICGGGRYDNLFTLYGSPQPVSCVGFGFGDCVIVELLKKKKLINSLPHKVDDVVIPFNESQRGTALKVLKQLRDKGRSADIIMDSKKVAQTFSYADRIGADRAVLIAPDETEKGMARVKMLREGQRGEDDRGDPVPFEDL
UniProt P9WFT3, whole entry: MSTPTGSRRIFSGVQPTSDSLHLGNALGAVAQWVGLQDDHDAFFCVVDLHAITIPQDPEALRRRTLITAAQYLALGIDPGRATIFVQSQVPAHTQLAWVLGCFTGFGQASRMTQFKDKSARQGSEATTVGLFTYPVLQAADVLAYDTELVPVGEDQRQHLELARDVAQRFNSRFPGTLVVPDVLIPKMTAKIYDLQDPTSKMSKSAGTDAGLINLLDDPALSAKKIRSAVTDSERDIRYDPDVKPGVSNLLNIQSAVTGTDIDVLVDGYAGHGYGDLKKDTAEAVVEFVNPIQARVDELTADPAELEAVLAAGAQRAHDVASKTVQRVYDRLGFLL
UniProt P9WNZ1, whole entry: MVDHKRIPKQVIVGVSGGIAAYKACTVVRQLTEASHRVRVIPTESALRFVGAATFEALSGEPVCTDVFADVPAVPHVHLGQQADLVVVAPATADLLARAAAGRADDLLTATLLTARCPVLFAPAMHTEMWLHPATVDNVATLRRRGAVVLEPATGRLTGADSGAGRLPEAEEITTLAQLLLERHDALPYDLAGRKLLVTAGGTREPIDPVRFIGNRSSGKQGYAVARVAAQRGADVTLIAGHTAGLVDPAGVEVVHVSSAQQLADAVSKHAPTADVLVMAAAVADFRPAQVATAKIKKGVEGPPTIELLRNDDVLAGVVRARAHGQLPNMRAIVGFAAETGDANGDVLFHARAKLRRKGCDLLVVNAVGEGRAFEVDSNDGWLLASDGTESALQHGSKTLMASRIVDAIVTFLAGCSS

The filed quantity is “Percent Effect” (%). The record does not define 0% and 100%; most values in the screen are far below 50% and negative numbers occur (in some assays of this library far below -100). This is an unselected part of the compounds tested. Two or more numbers in one place are separate tests of the same structure; such repeats can differ widely.

CCN(CC)C(=O)CS(=O)(=O)c1cc(OC)c(OC)cc1C read LiHisRS: 8.333%; MtTrpRS: 0.4989%; Toxoplasma: 2.89%; CoaBC: 11.09%. Result for Cc1c(CNCc2nn(-c3ccccc3)c3c2CCC3)cc(C#N)n1C was LiHisRS: 23.94%; MtTrpRS: -2.523%; Toxoplasma: 5.717%. Cc1cccc(C(=O)N2CC(=O)N(c3ccccc3Cl)CC2C)n1 (centres unmarked) gave LiHisRS: 10.62%; MtTrpRS: 0.9524%; Toxoplasma: -26.89%; CoaBC: -4.906%. For Cc1ccsc1CNC(=O)Cc1c(C)nc2c(c1C)c(=O)[nH]n2C the result was LiHisRS: 10.67%; MtTrpRS: -1.642%; Toxoplasma: -8.919%; CoaBC: 4.615%. Result for CN(C)c1cc(CC(NC(=O)C2CC2)c2ccccc2)nc(C2CC2)n1 (centres unmarked) was LiHisRS: 9.396%; MtTrpRS: -0.1257%; Toxoplasma: 3.679%; CoaBC: -1.142%. Result for Cn1nc2c(cc1=O)CN(Cc1nnc(C3CC3)o1)CC2 was LiHisRS: 97.87%; MtTrpRS: 2.45%; Toxoplasma: -20.98%; CoaBC: 11.64% & 25.39%. CCOc1ccc(NC(=O)c2oc(CC)cc2C)cc1CO gave LiHisRS: 9.859%; MtTrpRS: -3.532%; Toxoplasma: -0.6472%. CCCc1cc(=O)[nH]c2nnc(SCC(C)=O)n12 read LiHisRS: 11.57%; MtTrpRS: 2.189%; Toxoplasma: -10.36%; CoaBC: -1.623%.

With CN1CCC/C1=N\S(=O)(=O)c1ccc(NC(=O)c2ccsc2)cc1 the screen gave LiHisRS: 6.838%; MtTrpRS: 2.896%; Toxoplasma: -1.836%; CoaBC: -4.29%. Result for COCCn1ccc2c(C(=O)Nc3nc4c(s3)CCC4)cccc21 was LiHisRS: 21.74%; MtTrpRS: -5.788%; CoaBC: 1.337%. CN1CCNC(=O)C12CCN(C(=O)c1ccc3[nH]c(=O)[nH]c3c1)CC2 gave LiHisRS: 4.918%; MtTrpRS: 0.6441%; Toxoplasma: 2.186%; CoaBC: 1.082%. COc1c(C2CCCN2Cc2nnc(C3CC3)n2C)c(C)nn1C (centres unmarked) gave LiHisRS: -1.493%; MtTrpRS: -6.46%; Toxoplasma: 7.016%; CoaBC: -3.213%. With Cc1cc(-c2cnc(NC3CCCC3)nc2-c2ccco2)on1 the screen gave LiHisRS: 19.79%; Toxoplasma: 6.64%; CoaBC: 3.431%. Result for O=S(=O)(c1ccccc1)N1CCC2(CCCN2Cc2cccc(F)c2)C1 (centres unmarked) was LiHisRS: 28%; MtTrpRS: 1.72%; Toxoplasma: -12.13%; CoaBC: 4%. O=C(C[C@@H]1COC[C@H]2CN(CC3CCOCC3)C[C@@H]12)N1CCCCO1 read LiHisRS: 10.53%; MtTrpRS: 2.705%; CoaBC: 2.24%. With COCC1(NC(=O)C(c2ccc(F)cc2)N(C)C)CCCC1 (centres unmarked) the screen gave LiHisRS: -2.564%; MtTrpRS: 1.955%; Toxoplasma: -2.63%; CoaBC: -8.249%.

With Cc1cc(N2CCCN3CCC[C@H]3C2)n2nc(C)c(C)c2n1 the screen gave LiHisRS: 12.9%; MtTrpRS: -4.714%; CoaBC: 2.061%. CCc1nc(CN2CCc3c(ncn3C3CC3)C2)cs1 gave LiHisRS: 28.85%; MtTrpRS: -0.7252%; Toxoplasma: -9.948%; CoaBC: 5.018%. For Cc1ccnc(NC(=O)CSCc2cccnc2)c1 the result was LiHisRS: 15.38%; MtTrpRS: -3.631%; Toxoplasma: 9.513%; CoaBC: 4.225%. CN(Cc1cccc(F)c1)C(=O)CN1CCOC(Cn2cccn2)C1 (centres unmarked) read LiHisRS: 12.5%; MtTrpRS: -0.5136%; Toxoplasma: 5.117%; CoaBC: -0.7905%. Result for [H][C@@]12C[C@H](C(=O)NC)[C@@]([H])(CN(C(=O)NCCc3ccccc3)C1)O2 was Toxoplasma: 8.145%. COC(=O)Cn1c(C)cc(=O)n2nc(-c3cccs3)nc12 gave LiHisRS: 21.05%; MtTrpRS: 1.84%; Toxoplasma: -1.345%; CoaBC: 1.519%. For CC(C)N(C)CCC(=O)N1CCCC(c2ccc(C(=O)O)cc2)C1 (centres unmarked) the result was LiHisRS: 12.94%; MtTrpRS: 2.389%; Toxoplasma: 28.77%; CoaBC: 3.807%. For O=C(O)C(F)(F)F.O=C(O)C(F)(F)F.O=C(c1ccc[nH]1)N1CCc2c(COCc3ccncc3)cncc2C1 the result was Toxoplasma: 0.7685%.

Some entries from above, unchanged:

{"compound": "CC(C)N(C)CCC(=O)N1CCCC(c2ccc(C(=O)O)cc2)C1", "stereo": "centres unmarked", "LiHisRS": 12.94, "MtTrpRS": 2.389, "Toxoplasma": 28.77, "CoaBC": 3.807}
{"compound": "COC(=O)Cn1c(C)cc(=O)n2nc(-c3cccs3)nc12", "LiHisRS": 21.05, "MtTrpRS": 1.84, "Toxoplasma": -1.345, "CoaBC": 1.519}

Measurements from “University of Dundee, Small-Polar-MMV Screening Library” (2021), ChEMBL document CHEMBL3988442.